According to US20170059578A1:
Results are given in words; binding and its absence hold for the method and conditions named. Some results given as binding are weak or reduced against the parent protein; the word gives no strength.

molecular target: streptavidin (UniProt P22629); experiment: peptide array, fluorescence signal of bound streptavidin

Row | Binder | binding
1 | ASWCHPQGPC [control peptide … (SEQ ID NO:4)] | binds
2 | WKHPQAGS [control peptide WKHPQAGS (SEQ ID NO:3)] | binds
3 | GFEDYLGEYHG [control peptide … (SEQ ID NO:1)] | binds
4 | VWHPQSGK [control peptide VWHPQSGK (SEQ ID NO:9)] | binds
5 | WWHPQNAV [control peptide WWHPQNAV (SEQ ID NO:11)] | binds
6 | RYHPQ [control peptide RYHPQ (SEQ ID NO:13)] | binds
7 | GWTHPMFEQKG [control peptide … (SEQ ID NO:2)] | binds
8 | WVHPQFQT [control peptide WVHPQFQT (SEQ ID NO:12)] | binds

Next, values leading:

Row | binding | Binder
9 | binds | GNSFDDWLNKG [control peptide … (SEQ ID NO:10)]
10 | binds | ASWVHPQFQN [control peptide … (SEQ ID NO:16)]
11 | binds | GNSFDDWLQKG [control peptide … (SEQ ID NO:6)]
12 | binds | PGWKLAG (N-terminal Pro is acetylated (*P)) [truncated peptide *PGWKLAG (SEQ ID NO:20)]
13 | binds | KNTFDEWLQKG [control peptide … (SEQ ID NO:15)]
14 | binds | ASYDHPQGGR [control peptide … (SEQ ID NO:5)]
15 | binds | ASWPHPQSGM [control peptide … (SEQ ID NO:7)]
16 | binds | SFEDYLAEYHG [control peptide … (SEQ ID NO:17)]
17 | binds | ASWIHPQFQG [control peptide … (SEQ ID NO:8)]
18 | binds | ASYPHPQSGQ [control peptide … (SEQ ID NO:14)]
